# In publication PMC2585101:
# Construct, isoform or probe ends are uncertain for at least one entry. For part of these data: No signal at the amounts used counts as a negative. For part of these data: At least one result comes from cells or an extract, where the contact may be indirect.
# Experiments:
# [1] = test system: estrogen receptor alpha (ERα), purified; assay: EMSA (agarose); conditions: 15 mM Tris, 0.2 mM EDTA, 80 mM KCl, 50 uM Zn chloride, 5 mM MgOAc, 10% glycerol, 4 mM DTT, 1 ug poly dI/dC, 1 ug salmon sperm DNA, 1 ug BSA, 10 pmol DNA, recombinant protein
# [2] = test system: estrogen receptor alpha (ERα), purified; assay: EMSA (agarose), supershift; conditions: 10 uM E2, HeLa nuclear extract, 15 mM Tris, 0.2 mM EDTA, 80 mM KCl, 50 uM Zn chloride, 5 mM MgOAc, 10% glycerol, 4 mM DTT, 1 ug poly dI/dC, 1 ug salmon sperm DNA, 1 ug BSA, 10 pmol DNA, recombinant protein, label: 32P end label
# [3] = test system: estrogen receptor alpha (ERα), purified; assay: competition with a labelled probe; conditions: 10 uM E2, HeLa nuclear extract, 15 mM Tris, 0.2 mM EDTA, 80 mM KCl, 50 uM Zn chloride, 5 mM MgOAc, 10% glycerol, 4 mM DTT, 1 ug poly dI/dC, 1 ug salmon sperm DNA, 1 ug BSA, 10 pmol DNA, recombinant protein
# [4] = test system: estrogen receptor alpha (ERα), purified + AIB-1 (p160 coactivator), HeLa nuclear extract; assay: agarose gel complex isolation, immunoblot; conditions: E2, HeLa nuclear extract, ERα antibody, AIB-1 absent without ERα; 15 mM Tris, 0.2 mM EDTA, 80 mM KCl, 50 uM Zn chloride, 5 mM MgOAc, 10% glycerol, 4 mM DTT, 1 ug poly dI/dC, 1 ug salmon sperm DNA, 1 ug BSA, 10 uM E2; 10 pmol DNA; recombinant protein
sequence,measurement,setting,value
"CTAGATTACTTCTCATGTTAGACATACTCA / GATCTGAGTATGTCTAACATGAGAAGTAATCTAG [nonspecific (NS) oligo, radiolabeled]",binding result,"[1]; E2, HeLa nuclear extract, 10 uM E2, label: 32P",no binding
GATTAACTGTCCAAAGTCAGGTCACAGTGACCTGATCAAAGTTAATGTAA (double strand) [vitellogenin A2 ERE oligo],binding result,"[1]; 10 uM E2, no nuclear extract, no discrete complex on agarose gel, label: 32P end label",no binding
same,binding result,[2],binds
"GATTAACTGTCCAAAGTCAGGTCACAGTGACCTGATCAAAGTTAATGTAA (double strand) [vitellogenin A2 ERE oligo, unlabeled]",binding result,[3]; 10 pmol unlabeled vs 10 pmol probe,binds
same,binding result,[4],binds
"CTAGATTACTTCTCATGTTAGACATACTCA / GATCTGAGTATGTCTAACATGAGAAGTAATCTAG [nonspecific (NS) oligo, unlabeled]",binding result,[3]; 10 pmol unlabeled vs 10 pmol ERE probe,no binding
